Measurements as given in article PMC5825117.

Target: T1, FLAG-Su(Hw)^+ expressed in S2 cells (Drosophila) (UniProt P08970)
T1 sequence: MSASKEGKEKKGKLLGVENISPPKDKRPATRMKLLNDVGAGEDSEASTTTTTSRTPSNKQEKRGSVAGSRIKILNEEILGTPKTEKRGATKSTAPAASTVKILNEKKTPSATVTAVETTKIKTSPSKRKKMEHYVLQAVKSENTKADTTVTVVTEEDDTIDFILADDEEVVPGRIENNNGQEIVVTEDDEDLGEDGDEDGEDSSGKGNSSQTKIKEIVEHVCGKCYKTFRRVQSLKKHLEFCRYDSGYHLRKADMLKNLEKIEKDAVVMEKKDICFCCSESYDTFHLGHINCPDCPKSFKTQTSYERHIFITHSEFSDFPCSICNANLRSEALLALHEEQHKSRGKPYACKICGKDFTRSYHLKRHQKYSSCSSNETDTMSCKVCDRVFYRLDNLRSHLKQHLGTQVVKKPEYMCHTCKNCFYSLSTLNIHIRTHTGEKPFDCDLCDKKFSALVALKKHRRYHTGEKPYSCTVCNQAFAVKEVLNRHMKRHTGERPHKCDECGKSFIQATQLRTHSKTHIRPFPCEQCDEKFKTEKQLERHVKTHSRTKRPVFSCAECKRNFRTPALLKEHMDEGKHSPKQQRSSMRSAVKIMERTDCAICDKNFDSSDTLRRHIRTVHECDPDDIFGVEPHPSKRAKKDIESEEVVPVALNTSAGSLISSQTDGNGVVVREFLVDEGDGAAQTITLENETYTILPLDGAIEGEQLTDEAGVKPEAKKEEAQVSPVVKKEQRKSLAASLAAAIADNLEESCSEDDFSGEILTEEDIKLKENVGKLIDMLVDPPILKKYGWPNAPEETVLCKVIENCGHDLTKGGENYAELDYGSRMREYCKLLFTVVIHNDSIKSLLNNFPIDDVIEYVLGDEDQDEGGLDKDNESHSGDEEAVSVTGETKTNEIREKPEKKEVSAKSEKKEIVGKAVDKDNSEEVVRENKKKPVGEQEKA
Test: co-IP; S2 cells transfected with triple-FLAG Su(Hw) variants; lysis buffer with 450 mM NaCl and DNase I, diluted; FLAG Sepharose beads overnight at 4°C; washes with 150 mM NaCl; blots for the endogenous proteins

binding: no binding
Substance: Skeletor protein (S2 cells) (Drosophila (endogenous in S2 cells))

No constants are given. Whether binding was seen depends on the method and setting. In cells and extracts the contact can be indirect. Sequences can lack the tags named with a protein.
